Laboratory results as given in patent US9023832B2, “Derivatives of 1-amino-2-cyclopropylethylboronic acid” (Millennium Pharmaceuticals, Inc., priority 2010, dated 2015).
Some results were stated once for a whole list of compounds, not compound by compound. The name of at least one read-out is uncertain.

The chains behind the UniProt entries cited, without tags or fusion partners. Where a name states a change or a piece, a line headed by the entry shows the natural chain unless it says otherwise.
UniProt P28072: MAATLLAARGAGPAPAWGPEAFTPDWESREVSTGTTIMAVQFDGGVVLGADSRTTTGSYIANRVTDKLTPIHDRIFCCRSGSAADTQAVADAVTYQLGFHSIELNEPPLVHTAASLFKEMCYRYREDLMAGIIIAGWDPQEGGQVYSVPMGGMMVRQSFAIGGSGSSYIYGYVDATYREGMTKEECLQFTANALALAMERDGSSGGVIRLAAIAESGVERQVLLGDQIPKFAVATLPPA
UniProt P28074: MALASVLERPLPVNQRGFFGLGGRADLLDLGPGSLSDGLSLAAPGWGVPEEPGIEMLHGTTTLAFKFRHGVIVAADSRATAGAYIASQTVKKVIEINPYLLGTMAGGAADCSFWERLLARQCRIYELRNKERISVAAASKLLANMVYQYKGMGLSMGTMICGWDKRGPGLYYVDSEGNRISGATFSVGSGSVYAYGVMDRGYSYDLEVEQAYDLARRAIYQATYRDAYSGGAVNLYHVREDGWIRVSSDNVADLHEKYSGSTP
UniProt Q99436: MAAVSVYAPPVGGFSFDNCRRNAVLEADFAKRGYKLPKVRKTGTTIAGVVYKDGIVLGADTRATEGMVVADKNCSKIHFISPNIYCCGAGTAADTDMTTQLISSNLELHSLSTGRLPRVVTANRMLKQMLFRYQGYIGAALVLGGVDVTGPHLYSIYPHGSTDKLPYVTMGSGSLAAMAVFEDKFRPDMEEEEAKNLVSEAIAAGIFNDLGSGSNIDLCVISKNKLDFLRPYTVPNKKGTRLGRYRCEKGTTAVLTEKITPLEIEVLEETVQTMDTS

Target: human 20S proteasome (Homo sapiens, UniProt P28072+P28074+Q99436)
Experiment: Proteasome Inhibition Kinetics (enzyme progress curves)
Format: biochemical
Conditions: human 20S proteasome 0.25 nM activated with 0.01% SDS, 37 °C; from koff

Row | SMILES | dissociation half-life t1/2
1 | O=C(N[C@@H](CC1CC1)B(O)O)[C@H](Cc1ccccc1)NS(=O)(=O)c1ccc(Oc2ccccn2)cc1 [Compound 1, ((1R)-2-cyclopropyl-1-{[(2S)-3-phenyl-2-({[4-(pyridin-2-yloxy)phenyl]sulfonyl}amino)propanoyl]amino}ethyl)boronic acid] | less than 10 min
2 | O=C(N[C@@H](CC1CC1)B(O)O)[C@H](Cc1ccccc1)NS(=O)(=O)c1ccc(Oc2cccnc2)cc1 [Compound 2, ((1R)-2-cyclopropyl-1-{[(2S)-3-phenyl-2-({[4-(pyridin-3-yloxy)phenyl]sulfonyl}amino)propanoyl]amino}ethyl)boronic acid] | less than 10 min
3 | O=C(N[C@@H](CC1CC1)B(O)O)[C@H](Cc1ccccc1)NS(=O)(=O)c1ccc(-c2cnco2)cc1 [Compound 6, ((1R)-2-cyclopropyl-1-{[(2S)-2-({[4-(1,3-oxazol-5-yl)phenyl]sulfonyl}amino)-3-phenylpropanoyl]amino}ethyl)boronic acid] | less than 10 min
4 | O=C(N[C@@H](CC1CC1)B(O)O)[C@H](Cc1ccccc1)NS(=O)(=O)c1cccc(Oc2ccc(C(F)(F)F)cn2)c1 [Compound 7, {(1R)-2-cyclopropyl-1-[((2S)-3-phenyl-2-{[(3-{[5-(trifluoromethyl)pyridin-2-yl]oxy}phenyl)sulfonyl]amino}propanoyl)amino]ethyl}boronic acid] | less than 10 min
